Paper PMC6593165
The exact form of at least one protein or probe is not confirmed. A negative result means that nothing was seen under these conditions.

The sequences below were run on GST-WRKY72 (Oryza sativa (rice, Nipponbare)) (assay: EMSA). Conditions: 5-, 10-, 30-fold unlabeled probe weakened the shift; EMSA: 10 mM Tris-HCl pH 7.5, 50 mM KCl, 1 mM DTT, 2.5% glycerol, 5 mM MgCl2, 50 ng/uL poly(dI-dC), 0.05% NP-40, room temperature, 20 fmol biotin probe, 6% PAGE; recombinant protein; protein details: GST (N-terminal, pGEX-4T-1); label: biotin.
“AAGGTGGTGAGCCCAATCACCACCTTACTGGTTGACCTGCCGAAGACCGCTCCGCTGGCC (double strand) [AOS1 probe 1 (W-box)]”: binds.

Same assay, conditions: EMSA: 10 mM Tris-HCl pH 7.5, 50 mM KCl, 1 mM DTT, 2.5% glycerol, 5 mM MgCl2, 50 ng/uL poly(dI-dC), 0.05% NP-40, room temperature, 20 fmol biotin probe, 6% PAGE; recombinant protein; protein details: GST (N-terminal, pGEX-4T-1); label: biotin
“AAGGTGGTGAGCCCAATCACCACCTTACTGGTAAGGCTGCCGAAGACCGCTCCGCTGGCC (double strand) [AOS1 probe 4 (TaaggC)]”: no binding.
“AAGGTGGTGAGCCCAATCACCACCTTACTGGTTGAAATGCCGAAGACCGCTCCGCTGGCC (double strand) [AOS1 probe 2 (TTGAaa)]”: no binding.
“AAGGTGGTGAGCCCAATCACCACCTTACTGGTTGGGGTGCCGAAGACCGCTCCGCTGGCC (double strand) [AOS1 probe 3 (TTGggg)]”: no binding.
“TCGGTCCGATCGATCGAGTCCACGGCCATGAGCTTAGCTTGTCATGCACGTAGCTTAATTAGGCCCGGAACTTCCAGTCT (double strand) [LOX1 probe]”: no binding.
“TTGGAAAGGTACGATGTCAAAAAAATAAATTTGACCATTATTTTCTATTATAATATGTAT (double strand) [AOC probe]”: no binding.
